The values below come from paper PMC10183039.

Sequences of proteins named here, by UniProt entry; tags and fusion partners are left off. Residues count along the entry.
UniProt P06761, residues 19-654: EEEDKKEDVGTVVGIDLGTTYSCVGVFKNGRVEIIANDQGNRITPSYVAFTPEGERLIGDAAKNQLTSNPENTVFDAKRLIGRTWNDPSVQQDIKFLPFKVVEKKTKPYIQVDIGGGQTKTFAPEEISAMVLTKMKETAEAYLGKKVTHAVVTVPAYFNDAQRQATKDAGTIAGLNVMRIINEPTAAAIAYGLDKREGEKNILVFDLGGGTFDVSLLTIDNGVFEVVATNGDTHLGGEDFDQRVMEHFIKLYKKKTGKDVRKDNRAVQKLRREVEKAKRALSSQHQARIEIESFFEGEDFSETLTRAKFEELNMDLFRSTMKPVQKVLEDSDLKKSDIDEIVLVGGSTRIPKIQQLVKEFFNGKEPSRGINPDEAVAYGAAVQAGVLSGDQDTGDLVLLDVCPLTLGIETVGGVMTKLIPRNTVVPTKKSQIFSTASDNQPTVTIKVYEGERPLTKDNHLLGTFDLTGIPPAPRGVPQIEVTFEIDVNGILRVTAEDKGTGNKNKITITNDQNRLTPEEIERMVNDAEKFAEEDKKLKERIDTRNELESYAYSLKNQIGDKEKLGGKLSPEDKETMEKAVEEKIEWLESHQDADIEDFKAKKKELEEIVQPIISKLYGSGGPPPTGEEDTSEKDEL
UniProt P29994: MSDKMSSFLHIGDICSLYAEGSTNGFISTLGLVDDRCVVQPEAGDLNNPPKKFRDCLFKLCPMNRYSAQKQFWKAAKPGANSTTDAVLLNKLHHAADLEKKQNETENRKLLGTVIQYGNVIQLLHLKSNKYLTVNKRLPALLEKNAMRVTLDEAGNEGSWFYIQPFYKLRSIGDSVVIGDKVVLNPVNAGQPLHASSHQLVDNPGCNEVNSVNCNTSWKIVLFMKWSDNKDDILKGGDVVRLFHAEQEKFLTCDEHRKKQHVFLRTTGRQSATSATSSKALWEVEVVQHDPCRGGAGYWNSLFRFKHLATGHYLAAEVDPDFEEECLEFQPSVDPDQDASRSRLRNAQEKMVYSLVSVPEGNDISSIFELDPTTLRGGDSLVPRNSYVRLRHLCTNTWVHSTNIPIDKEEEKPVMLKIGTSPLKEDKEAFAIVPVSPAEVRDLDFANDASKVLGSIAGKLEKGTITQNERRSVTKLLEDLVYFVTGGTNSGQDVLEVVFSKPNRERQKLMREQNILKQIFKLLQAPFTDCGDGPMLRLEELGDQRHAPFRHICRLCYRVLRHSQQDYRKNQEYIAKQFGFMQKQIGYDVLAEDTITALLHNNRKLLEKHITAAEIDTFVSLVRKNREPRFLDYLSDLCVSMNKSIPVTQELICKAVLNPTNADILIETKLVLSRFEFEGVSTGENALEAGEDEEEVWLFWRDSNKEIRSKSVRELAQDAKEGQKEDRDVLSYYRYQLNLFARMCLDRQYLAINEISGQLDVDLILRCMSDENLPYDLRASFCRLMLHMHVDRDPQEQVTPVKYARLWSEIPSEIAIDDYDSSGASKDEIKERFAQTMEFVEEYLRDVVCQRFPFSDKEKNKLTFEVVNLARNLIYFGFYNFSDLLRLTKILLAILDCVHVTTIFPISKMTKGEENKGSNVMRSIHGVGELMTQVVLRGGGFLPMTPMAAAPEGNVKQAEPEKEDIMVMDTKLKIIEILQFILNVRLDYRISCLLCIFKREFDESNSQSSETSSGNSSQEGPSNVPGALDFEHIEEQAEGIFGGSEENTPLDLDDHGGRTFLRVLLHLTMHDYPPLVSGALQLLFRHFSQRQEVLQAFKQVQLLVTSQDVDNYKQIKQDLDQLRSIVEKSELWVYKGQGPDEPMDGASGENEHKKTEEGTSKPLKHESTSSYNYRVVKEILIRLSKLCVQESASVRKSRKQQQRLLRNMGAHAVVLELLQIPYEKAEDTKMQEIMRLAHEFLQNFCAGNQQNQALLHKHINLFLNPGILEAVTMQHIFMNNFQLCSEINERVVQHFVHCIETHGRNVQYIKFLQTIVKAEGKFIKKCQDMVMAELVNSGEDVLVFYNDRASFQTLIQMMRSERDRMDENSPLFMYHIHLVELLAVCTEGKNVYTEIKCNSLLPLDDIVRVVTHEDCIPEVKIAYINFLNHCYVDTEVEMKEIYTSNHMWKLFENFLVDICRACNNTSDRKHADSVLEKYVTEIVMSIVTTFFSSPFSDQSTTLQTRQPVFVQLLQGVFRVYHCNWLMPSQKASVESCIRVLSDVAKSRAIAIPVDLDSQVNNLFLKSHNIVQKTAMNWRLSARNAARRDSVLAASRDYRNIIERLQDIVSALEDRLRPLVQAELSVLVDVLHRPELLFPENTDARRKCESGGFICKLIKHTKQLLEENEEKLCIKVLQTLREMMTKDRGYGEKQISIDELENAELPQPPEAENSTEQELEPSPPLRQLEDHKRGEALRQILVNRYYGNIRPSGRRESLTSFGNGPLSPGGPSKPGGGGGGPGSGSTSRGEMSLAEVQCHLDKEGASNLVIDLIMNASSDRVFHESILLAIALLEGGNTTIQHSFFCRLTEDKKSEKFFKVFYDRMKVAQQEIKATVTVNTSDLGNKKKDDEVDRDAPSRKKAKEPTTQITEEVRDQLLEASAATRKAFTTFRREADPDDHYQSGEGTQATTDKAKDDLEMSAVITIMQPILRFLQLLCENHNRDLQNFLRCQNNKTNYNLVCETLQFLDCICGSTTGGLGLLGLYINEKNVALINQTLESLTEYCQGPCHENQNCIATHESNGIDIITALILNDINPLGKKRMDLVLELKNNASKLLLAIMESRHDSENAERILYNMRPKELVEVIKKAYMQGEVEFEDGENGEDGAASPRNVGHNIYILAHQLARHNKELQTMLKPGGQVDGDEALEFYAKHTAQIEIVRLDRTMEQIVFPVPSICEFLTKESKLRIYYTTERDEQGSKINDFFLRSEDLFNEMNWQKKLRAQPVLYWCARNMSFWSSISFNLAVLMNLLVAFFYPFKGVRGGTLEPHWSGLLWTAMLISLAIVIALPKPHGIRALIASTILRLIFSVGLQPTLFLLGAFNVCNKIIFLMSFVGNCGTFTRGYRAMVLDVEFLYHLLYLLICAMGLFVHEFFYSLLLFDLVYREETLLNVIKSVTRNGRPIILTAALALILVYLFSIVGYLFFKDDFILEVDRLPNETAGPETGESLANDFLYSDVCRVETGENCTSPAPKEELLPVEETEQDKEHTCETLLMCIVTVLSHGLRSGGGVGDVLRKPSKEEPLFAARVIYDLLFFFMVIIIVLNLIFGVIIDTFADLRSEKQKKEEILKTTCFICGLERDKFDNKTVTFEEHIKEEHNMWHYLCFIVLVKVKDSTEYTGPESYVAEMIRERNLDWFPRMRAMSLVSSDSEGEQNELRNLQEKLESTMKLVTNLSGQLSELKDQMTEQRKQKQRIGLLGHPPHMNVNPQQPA
UniProt P08592, residues 18-770: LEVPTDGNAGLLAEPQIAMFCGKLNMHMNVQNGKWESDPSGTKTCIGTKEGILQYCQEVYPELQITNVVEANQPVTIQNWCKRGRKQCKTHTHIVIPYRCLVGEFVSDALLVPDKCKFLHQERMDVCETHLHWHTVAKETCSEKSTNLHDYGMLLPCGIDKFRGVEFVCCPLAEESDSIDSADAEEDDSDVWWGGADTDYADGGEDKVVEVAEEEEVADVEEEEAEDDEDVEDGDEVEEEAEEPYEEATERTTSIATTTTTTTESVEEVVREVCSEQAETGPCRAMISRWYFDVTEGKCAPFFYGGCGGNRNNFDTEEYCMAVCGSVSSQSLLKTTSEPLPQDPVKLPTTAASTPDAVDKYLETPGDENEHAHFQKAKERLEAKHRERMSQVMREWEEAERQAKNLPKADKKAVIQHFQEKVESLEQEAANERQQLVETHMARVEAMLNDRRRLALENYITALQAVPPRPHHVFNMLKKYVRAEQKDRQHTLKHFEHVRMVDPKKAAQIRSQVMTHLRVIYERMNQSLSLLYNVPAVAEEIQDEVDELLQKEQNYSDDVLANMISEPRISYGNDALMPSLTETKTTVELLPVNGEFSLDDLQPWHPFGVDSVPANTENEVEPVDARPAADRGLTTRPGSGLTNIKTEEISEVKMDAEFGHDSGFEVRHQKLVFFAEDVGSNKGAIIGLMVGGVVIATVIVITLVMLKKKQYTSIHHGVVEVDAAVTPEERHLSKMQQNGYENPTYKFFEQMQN
UniProt P48721, residues 47-679: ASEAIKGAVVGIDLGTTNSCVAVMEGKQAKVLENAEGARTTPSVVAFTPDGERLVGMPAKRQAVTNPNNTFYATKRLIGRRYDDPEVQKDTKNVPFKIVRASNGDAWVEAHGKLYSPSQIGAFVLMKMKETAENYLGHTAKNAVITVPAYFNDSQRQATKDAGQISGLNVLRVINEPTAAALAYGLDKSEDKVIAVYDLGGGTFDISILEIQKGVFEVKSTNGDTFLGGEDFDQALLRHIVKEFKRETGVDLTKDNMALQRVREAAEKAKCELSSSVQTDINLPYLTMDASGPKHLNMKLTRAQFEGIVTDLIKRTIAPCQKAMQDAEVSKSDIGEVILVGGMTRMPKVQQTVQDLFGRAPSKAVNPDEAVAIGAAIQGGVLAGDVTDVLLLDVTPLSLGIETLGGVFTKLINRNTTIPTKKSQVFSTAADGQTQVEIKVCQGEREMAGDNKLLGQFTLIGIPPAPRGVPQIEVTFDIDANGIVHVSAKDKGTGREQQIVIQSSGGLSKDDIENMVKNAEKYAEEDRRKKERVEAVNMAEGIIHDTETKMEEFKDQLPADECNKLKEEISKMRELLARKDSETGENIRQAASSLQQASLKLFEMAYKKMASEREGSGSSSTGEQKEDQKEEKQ
UniProt Q9Z2L0: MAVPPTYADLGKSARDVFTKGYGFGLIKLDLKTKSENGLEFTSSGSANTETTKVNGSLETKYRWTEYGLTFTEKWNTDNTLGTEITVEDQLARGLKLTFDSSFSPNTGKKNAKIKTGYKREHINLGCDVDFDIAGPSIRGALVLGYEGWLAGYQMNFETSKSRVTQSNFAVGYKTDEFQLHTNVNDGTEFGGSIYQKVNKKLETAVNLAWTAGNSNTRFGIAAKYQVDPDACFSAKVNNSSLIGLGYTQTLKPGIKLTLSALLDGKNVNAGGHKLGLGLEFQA

What all share (test): co-IP; primary antibody on Protein A/G magnetic beads in PBS with 0.3% Triton X-100; hippocampal tissue of 3-month-old male rats (WT; APP KO or SNCA KO for comparison) homogenized in RIPA lysis buffer; lysate with beads overnight at 4 °C; four washes with PBST; western blotting
In assay [1] the target is Grp78 (rat (endogenous in hippocampus)) (UniProt P06761).
Assay [2] addresses T1, VDAC2 (rat (endogenous in hippocampus)) (UniProt P81155).
T1 sequence: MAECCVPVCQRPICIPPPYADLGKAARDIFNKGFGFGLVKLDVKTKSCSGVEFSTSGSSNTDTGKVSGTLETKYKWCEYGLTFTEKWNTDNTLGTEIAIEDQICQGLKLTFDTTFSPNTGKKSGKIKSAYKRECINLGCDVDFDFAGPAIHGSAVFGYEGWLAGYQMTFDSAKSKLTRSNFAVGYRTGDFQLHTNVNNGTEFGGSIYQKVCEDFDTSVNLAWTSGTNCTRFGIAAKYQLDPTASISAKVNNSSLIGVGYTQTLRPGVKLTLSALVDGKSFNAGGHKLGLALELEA

The target of assay [3] is IP3R1 (rat (endogenous in hippocampus)) (UniProt P29994).

These are yes or no findings as the source states them, for the method shown. Binding seen in cells or lysates may run through a third protein. Some binding calls cover weakened binding; strength is not graded here.

“Full-length APP (from UniProt P08592 18-770)”: the binding entry in assay [1] and in assay [2] was “binds” each time.

As to Grp75 (from UniProt P48721 47-679), the binding entry in assay [3] and in assay [2] was “binds” throughout. As for “IP3R1 (from UniProt P29994 1-2750) (receptor)”, the binding entry in assay [1] was “binds”. As to VDAC1 (from UniProt Q9Z2L0 1-283), the binding result in assay [2] was “binds”.
